No constants are given. Whether binding was seen depends on the method and setting. Some binding calls cover weakened binding; strength is not graded here.
Assays:
purified C3b [1] = biological target: purified C3b (UniProt P01024); assay: ELISA; C3b coated at 5 µg/ml on MaxiSorp wells; serial dilutions of recombinant FHR-5 variants, 1 h at 20°C, DPBS with 0.05% Tween-20; detected with polyclonal goat anti-human FHR-5; both purified
purified C3b [2] = biological target: purified C3b (UniProt P01024); assay: ELISA; C3b coated at 5 µg/ml (overnight, 4°C); patients' serum diluted 1:4 in DPBS with 1% BSA, 0.05% Tween 20, 1 h at 37°C; bound FHR-5 detected with anti-human FHR-5; normalized to a calibrator sample with only FHR-5WT; only the target purified

Amino acid sequences for entries named in this document (tags omitted). A change or cut given only in a name is not applied to a line headed by its entry.
UniProt P01024: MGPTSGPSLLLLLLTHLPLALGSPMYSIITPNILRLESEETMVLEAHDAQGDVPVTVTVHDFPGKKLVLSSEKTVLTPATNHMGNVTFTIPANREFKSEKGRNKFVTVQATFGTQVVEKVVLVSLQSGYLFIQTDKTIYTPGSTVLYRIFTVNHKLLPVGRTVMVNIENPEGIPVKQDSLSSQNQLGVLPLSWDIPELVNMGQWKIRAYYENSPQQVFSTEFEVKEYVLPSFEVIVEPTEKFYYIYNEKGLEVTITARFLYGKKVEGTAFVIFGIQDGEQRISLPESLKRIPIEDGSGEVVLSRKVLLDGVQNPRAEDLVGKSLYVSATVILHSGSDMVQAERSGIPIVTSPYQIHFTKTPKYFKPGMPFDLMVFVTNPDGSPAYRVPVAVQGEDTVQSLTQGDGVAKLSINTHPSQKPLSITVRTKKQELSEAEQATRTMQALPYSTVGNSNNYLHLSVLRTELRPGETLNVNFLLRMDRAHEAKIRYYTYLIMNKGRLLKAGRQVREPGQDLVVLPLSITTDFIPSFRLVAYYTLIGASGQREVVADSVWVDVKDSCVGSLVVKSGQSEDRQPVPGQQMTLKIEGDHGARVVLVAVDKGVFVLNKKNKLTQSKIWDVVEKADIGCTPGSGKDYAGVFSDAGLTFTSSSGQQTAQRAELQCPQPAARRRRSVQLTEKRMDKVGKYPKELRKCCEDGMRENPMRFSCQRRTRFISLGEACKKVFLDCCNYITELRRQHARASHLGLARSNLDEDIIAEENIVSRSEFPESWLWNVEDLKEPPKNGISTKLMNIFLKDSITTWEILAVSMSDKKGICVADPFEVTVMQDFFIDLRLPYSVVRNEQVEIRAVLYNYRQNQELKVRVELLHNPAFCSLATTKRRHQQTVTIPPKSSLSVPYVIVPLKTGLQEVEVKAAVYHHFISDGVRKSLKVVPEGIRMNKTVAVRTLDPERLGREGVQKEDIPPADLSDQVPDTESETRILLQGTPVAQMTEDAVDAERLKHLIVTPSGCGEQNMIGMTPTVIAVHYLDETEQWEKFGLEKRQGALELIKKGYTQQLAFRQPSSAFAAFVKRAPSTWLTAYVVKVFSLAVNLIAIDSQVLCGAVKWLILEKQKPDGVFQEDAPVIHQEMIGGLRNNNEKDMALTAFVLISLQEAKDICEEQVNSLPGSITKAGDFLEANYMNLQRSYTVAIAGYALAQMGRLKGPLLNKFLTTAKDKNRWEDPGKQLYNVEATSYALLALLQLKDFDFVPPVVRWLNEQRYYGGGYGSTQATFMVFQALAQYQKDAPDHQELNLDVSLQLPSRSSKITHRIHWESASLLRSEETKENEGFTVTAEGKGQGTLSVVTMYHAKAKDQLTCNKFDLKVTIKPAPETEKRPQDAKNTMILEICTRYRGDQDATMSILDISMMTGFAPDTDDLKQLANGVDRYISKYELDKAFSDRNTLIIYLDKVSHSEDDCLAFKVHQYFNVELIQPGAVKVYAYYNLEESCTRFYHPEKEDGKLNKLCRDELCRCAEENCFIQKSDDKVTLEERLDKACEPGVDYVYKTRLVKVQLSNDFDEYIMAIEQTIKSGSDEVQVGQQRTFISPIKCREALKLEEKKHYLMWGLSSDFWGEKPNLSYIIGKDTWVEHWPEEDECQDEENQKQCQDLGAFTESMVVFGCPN

binding (purified C3b [1]) | binding (purified C3b [2]) | Binder
binds | – | recombinant wild-type Factor H-related protein 5 (FHR-5WT) (protein, UniProt Q9BXR6 19-569) EGTLCDFPKIHHGFLYDEEDYNPFSQVPTGEVFYYSCEYNFVSPSKSFWTRITCTEEGWSPTPKCLRMCSFPFVKNGHSESSGLIHLEGDTVQIICNTGYSLQNNEKNISCVERGWSTPPICSFTKGECHVPILEANVDAQPKKESYKVGDVLKFSCRKNLIRVGSDSVQCYQFGWSPNFPTCKGQVRSCGPPPQLSNGEVKEIRKEEYGHNEVVEYDCNPNFIINGPKKIQCVDGEWTTLPTCVEQVKTCGYIPELEYGYVQPSVPPYQHGVSVEVNCRNEYAMIGNNMITCINGIWTELPMCVATHQLKRCKIAGVNIKTLLKLSGKEFNHNSRIRYRCSDIFRYRHSVCINGKWNPEVDCTEKREQFCPPPPQIPNAQNMTTTVNYQDGEKVAVLCKENYLLPEAKEIVCKDGRWQSLPRCVESTAYCGPPPSINNGDTTSFPLSVYPPGSTVTYRCQSFYKLQGSVTVTCRNKQWSEPPRCLDPCVVSEENMNKNNIQLKWRNDGKLYAKTGDAVEFQCKFPHKAMISSPPFRAICQEGKFEYPICE
– | binds | native wild-type FHR-5 in patients' serum (protein, UniProt Q9BXR6 19-569) EGTLCDFPKIHHGFLYDEEDYNPFSQVPTGEVFYYSCEYNFVSPSKSFWTRITCTEEGWSPTPKCLRMCSFPFVKNGHSESSGLIHLEGDTVQIICNTGYSLQNNEKNISCVERGWSTPPICSFTKGECHVPILEANVDAQPKKESYKVGDVLKFSCRKNLIRVGSDSVQCYQFGWSPNFPTCKGQVRSCGPPPQLSNGEVKEIRKEEYGHNEVVEYDCNPNFIINGPKKIQCVDGEWTTLPTCVEQVKTCGYIPELEYGYVQPSVPPYQHGVSVEVNCRNEYAMIGNNMITCINGIWTELPMCVATHQLKRCKIAGVNIKTLLKLSGKEFNHNSRIRYRCSDIFRYRHSVCINGKWNPEVDCTEKREQFCPPPPQIPNAQNMTTTVNYQDGEKVAVLCKENYLLPEAKEIVCKDGRWQSLPRCVESTAYCGPPPSINNGDTTSFPLSVYPPGSTVTYRCQSFYKLQGSVTVTCRNKQWSEPPRCLDPCVVSEENMNKNNIQLKWRNDGKLYAKTGDAVEFQCKFPHKAMISSPPFRAICQEGKFEYPICE
binds | – | recombinant FHR-5 G278S (protein, UniProt Q9BXR6 19-569) EGTLCDFPKIHHGFLYDEEDYNPFSQVPTGEVFYYSCEYNFVSPSKSFWTRITCTEEGWSPTPKCLRMCSFPFVKNGHSESSGLIHLEGDTVQIICNTGYSLQNNEKNISCVERGWSTPPICSFTKGECHVPILEANVDAQPKKESYKVGDVLKFSCRKNLIRVGSDSVQCYQFGWSPNFPTCKGQVRSCGPPPQLSNGEVKEIRKEEYGHNEVVEYDCNPNFIINGPKKIQCVDGEWTTLPTCVEQVKTCGYIPELEYSYVQPSVPPYQHGVSVEVNCRNEYAMIGNNMITCINGIWTELPMCVATHQLKRCKIAGVNIKTLLKLSGKEFNHNSRIRYRCSDIFRYRHSVCINGKWNPEVDCTEKREQFCPPPPQIPNAQNMTTTVNYQDGEKVAVLCKENYLLPEAKEIVCKDGRWQSLPRCVESTAYCGPPPSINNGDTTSFPLSVYPPGSTVTYRCQSFYKLQGSVTVTCRNKQWSEPPRCLDPCVVSEENMNKNNIQLKWRNDGKLYAKTGDAVEFQCKFPHKAMISSPPFRAICQEGKFEYPICE
– | binds | native FHR-5 in the serum of patients carrying the G278S variant (protein, UniProt Q9BXR6 19-569) EGTLCDFPKIHHGFLYDEEDYNPFSQVPTGEVFYYSCEYNFVSPSKSFWTRITCTEEGWSPTPKCLRMCSFPFVKNGHSESSGLIHLEGDTVQIICNTGYSLQNNEKNISCVERGWSTPPICSFTKGECHVPILEANVDAQPKKESYKVGDVLKFSCRKNLIRVGSDSVQCYQFGWSPNFPTCKGQVRSCGPPPQLSNGEVKEIRKEEYGHNEVVEYDCNPNFIINGPKKIQCVDGEWTTLPTCVEQVKTCGYIPELEYSYVQPSVPPYQHGVSVEVNCRNEYAMIGNNMITCINGIWTELPMCVATHQLKRCKIAGVNIKTLLKLSGKEFNHNSRIRYRCSDIFRYRHSVCINGKWNPEVDCTEKREQFCPPPPQIPNAQNMTTTVNYQDGEKVAVLCKENYLLPEAKEIVCKDGRWQSLPRCVESTAYCGPPPSINNGDTTSFPLSVYPPGSTVTYRCQSFYKLQGSVTVTCRNKQWSEPPRCLDPCVVSEENMNKNNIQLKWRNDGKLYAKTGDAVEFQCKFPHKAMISSPPFRAICQEGKFEYPICE
binds | – | recombinant FHR-5 R356H (protein, UniProt Q9BXR6 19-569) EGTLCDFPKIHHGFLYDEEDYNPFSQVPTGEVFYYSCEYNFVSPSKSFWTRITCTEEGWSPTPKCLRMCSFPFVKNGHSESSGLIHLEGDTVQIICNTGYSLQNNEKNISCVERGWSTPPICSFTKGECHVPILEANVDAQPKKESYKVGDVLKFSCRKNLIRVGSDSVQCYQFGWSPNFPTCKGQVRSCGPPPQLSNGEVKEIRKEEYGHNEVVEYDCNPNFIINGPKKIQCVDGEWTTLPTCVEQVKTCGYIPELEYGYVQPSVPPYQHGVSVEVNCRNEYAMIGNNMITCINGIWTELPMCVATHQLKRCKIAGVNIKTLLKLSGKEFNHNSRIHYRCSDIFRYRHSVCINGKWNPEVDCTEKREQFCPPPPQIPNAQNMTTTVNYQDGEKVAVLCKENYLLPEAKEIVCKDGRWQSLPRCVESTAYCGPPPSINNGDTTSFPLSVYPPGSTVTYRCQSFYKLQGSVTVTCRNKQWSEPPRCLDPCVVSEENMNKNNIQLKWRNDGKLYAKTGDAVEFQCKFPHKAMISSPPFRAICQEGKFEYPICE

From paper PMC8461307
